Assay results taken from patent US10079346B2, “Heteroaromatic compounds for organic electronics” (BASF SE, priority 2014, dated 2018).
Some compounds share one wording; it may come from a single statement.

Assay: Bottom-gate top-contact field-effect transistors, semiconductor thermally evaporated in high vacuum (Example 14)
Details: for transistor characteristics (type): OFET of example 14; for μ (charge-carrier mobility): OFET of example 14, saturation regime, thermally evaporated; for μ (charge-carrier mobility) / Vth (threshold voltage) / Ion/off: ambient air; for Vth (threshold voltage) / Ion/off: OFET of example 14, thermally evaporated; for Vth (threshold voltage): Al2O3 dielectric

In the case of `CCCCCCCCCCCCCCc1ccc2c(c1)N=c1c(c3c(n1C(=O)OC(C)(C)C)=Nc1cc(CCCCCCCCCCCCCC)ccc1S3)S2` [Compound 1e], the “transistor characteristics (type)” value is reported as “typical p-type characteristics”, the “μ (charge-carrier mobility)” value is reported as 0.23 cm^2/Vs and the “Vth (threshold voltage)” value is reported as −3.9 V. The Ion/off was 2E6.
With `CC(C)(C)OC(=O)n1c2c(c3c1=Nc1ccccc1S3)Sc1ccccc1N=2` [Compound 1a] the “transistor characteristics (type)” value was “typical p-type characteristics”, the “μ (charge-carrier mobility)” value was 0.13 cm^2/Vs and the “Vth (threshold voltage)” value was −6.9 V. It also gave an Ion/off of 1E4.
With `CCCCCC1CCC(c2ccc3c(c2)N=c2c(c4c(n2C(=O)OC(C)(C)C)=Nc2cc(C5CCC(CCCCC)CC5)ccc2S4)S3)CC1` (stereo not drawn) [Compound 1g] the “transistor characteristics (type)” value was “typical p-type characteristics”, the “μ (charge-carrier mobility)” value was 0.008 cm^2/Vs and the “Vth (threshold voltage)” value was −6.5 V. The Ion/off was 4E4.
